Library screen at single concentrations

Measurements from “University of Dundee, Small-Polar-MMV Screening Library” (2021), ChEMBL document CHEMBL3988442.

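Assay of Toxoplasma gondii numbers, read through their beta-galactosidase reporter with a colour substrate. Concentration: 50 µM. Higher reads as fewer parasites (inferred from which compounds were picked for retests). Of about 18,000 compounds tested this way, about 170 (0.94%) reached 50% or more in at least one test.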

Results are given as percent effect. How 0% and 100% were set is not recorded. Most values in the screen are low, and negative values occur. The compounds are a random part of those screened.

compound | Percent Effect
NC1CCN(CCN2CCOCC2)C1 (centres undefined) | 19.15
Nc1nc(-c2cncc(O)c2)n[nH]1 | 11.15
CCCC(N)CNS(=O)(=O)c1cc(C)cc(F)c1 (centres undefined) | -3.564
Cc1n[nH]cc1CNCc1ccc(-n2ccnc2)nc1 | 1.519
Cc1nnc(CCNC(=O)c2c(C)nn(C)c2C)s1 | -1.408
NC1(c2ccccn2)CC1 | -13.39
CCn1cc(Br)c(=O)c(NC(=O)[C@@H]2CCCO2)c1 | -1.932
Cc1ccc(CN(CCCC(=O)NC(N)=O)C2CC2)o1 | 4.32
N[C@H]1CCN(S(=O)(=O)c2ccc(F)c(C(F)(F)F)c2)C1 | -5.7
Cn1cnnc1CCNC(=O)Cc1ccsc1 | 6.538
Nc1ncn(S(=O)(=O)c2ccccc2)n1 | -4.419
O=C(c1cc(F)ccc1F)N1CCNCC1 | -10.16
Cc1cc(CN)nc(N2CCCC2)n1 | -18.34
CC(C)C(=O)N1CCCCC1C (centres undefined) | 14.02
CCn1ncnc1CN1CCCC1c1ccccn1 (centres undefined) | -2.365
COC(=O)c1cccc(OCC(O)C(F)(F)F)c1 (centres undefined) | -3.624
CNCc1n[nH]c2c1CCCC2 | -5.21
Cc1cc(NC(=O)NC2CCN(C3CC3)C2)no1 (centres undefined) | -6.245
Nc1ccn(CCO)n1 | -4.337
O=C(Nc1ncccc1O)c1sccc1OC(F)F | 3.219
CCCc1nc(CN(CC)C(=O)[C@@H]2CCC(=O)N2)no1 | 11.2
CCN(Cc1ccco1)C(=O)c1csc(NC(C)=O)n1 | 5.567
Cc1ccc(S(=O)(=O)NC2CC[S+]([O-])CC2)cc1F (centres undefined) | -8.227
CC(=O)N[C@@H](CC(C)C)C(=O)NCCc1csc(N)n1 | 7.535
COC(C)(C)C(=O)NCc1ccnc(NC2CC2)c1 | -4.766
CNS(=O)(=O)c1cccc2nonc12 | -0.6863
O=C1COc2ccc(S(=O)(=O)N3CCNCC3)cc2N1 | -11.9
CCSc1nnc(-c2cccc(C)c2)n1CC(N)=O | -3.956
CC(C)c1cc(N)[nH]n1 | -8.624
CC(C)Oc1ccc(NC(=O)NCC(=O)N(C)C)cc1 | -11.41
O=C(NCCO)NCc1c(F)cc(Br)cc1F | -4.839
N#CC1(N)CCc2ccccc2C1 (centres undefined) | 5.103
CC(C)(C)NC(=O)CNc1nc2ccccc2c(=O)[nH]1 | 2.043
CC(C)(C)c1noc(CN2CCC(CO)CC2)n1 | 8.776
NC(c1ccncc1)C1(CO)CCC1 (centres undefined) | -2.447
CCC(CC)(CN)C(=O)N1CCC(C)(C)C1 | 3.753
NCCc1nnc2ccccn12 | 5.588
COc1ccc(CCC(=O)N(C)CC(N)=O)cc1Br | 1.91
CCc1nc(CN2CCN(c3cnccn3)CC2)n[nH]1 | 0.3084
CCN1CCCN(C(=O)c2ccc(F)cc2F)CC1 | 2.44
CCc1nnc(NCCS(=O)(=O)N(C)C)o1 | -8.612
CC(C)=CCC1(CO)CCCN(CCS(C)(=O)=O)C1 (centres undefined) | -9.651
CNC(=O)[C@H]1CC[C@H](CNC(=O)c2cn[nH]c2)CC1 | 11.45
CCCOc1cc(C)ccc1NC(=O)Cn1cnnn1 | 17.39
CCOCC(=O)Nc1cc(C(=O)NC)ccc1C | -15.11
Cc1ccc(NC(=O)NC[C@@H]2C[C@H](F)CN2)cc1C#N | -4.163
CCN(C(=O)COc1ccccc1Cl)[C@H]1COC[C@@H]1O | 3.259
Cc1nnc(CCNC(=O)CN2CCC(N(C)C)C2)s1 (centres undefined) | -3.455
CC(C)OCC1CCN(C(=O)c2cccc(=O)[nH]2)CC1 | 3.24
CCNC(=O)Cc1n[nH]c(=O)c2ccccc12 | -26.47
Cc1cc(N2CCCC(NS(C)(=O)=O)C2)nc(C)n1 (centres undefined) | -13.13
CC(C)(C)OC(=O)N1CC(S(N)(=O)=O)C1 | 5.535
OCCSc1ccccn1 | 1.879
OC1(CNCCCn2ncc3ccccc32)CCNC1 (centres undefined) | 2.303
CCNC(=O)C(C)NC(=O)CCc1ccsc1 (centres undefined) | -0.5579
O=S(=O)(CCNc1ccccn1)NCC1CCC1 | -0.7549
CN(CC(N)=O)C1CCN(CCc2ccccn2)CC1 | -2.249
COc1ccc(OC)c(C(O)CN2CCNC(=O)C2)c1 (centres undefined) | -8.168
C[C@H](NC(=O)CSCc1ccccc1Cl)C(N)=O | 9.568
COc1ccnc(C(N)=O)c1 | -5.013
Cn1cc(C(=O)Nc2ccc(F)cc2)ccc1=O | 7.426
COCCCN(CCO)c1nccn2nc(C)cc12 | 0.5734
CCn1ncnc1CN1CCCC(CS(C)(=O)=O)C1 (centres undefined) | -0.1274
CSCCCNC(=O)Nc1ncnn1C | -6.612
CC1(O)CCN(C(=O)NC(C)(C)C)C1 (centres undefined) | -5.928
N#Cc1ccc(NC(=O)Cn2cc(I)cn2)cc1 | -3.773
COc1ccc(CNC(=O)c2cnsn2)cc1 | -19.01
O=C(Nc1ccccc1)C1CCCN1 (centres undefined) | 15.2
CC1(C)CNC(=O)c2nc(CCN3CCCC3)[nH]c2C1 | -0.3782
CCN(CC)C(=O)CN(C)C(=O)CN1CCC(C)CC1 | -7.764
CC(CNC(=O)Cn1cccn1)Sc1ccccc1 (centres undefined) | 1.431
CNCCCNS(=O)(=O)c1cn(C(C)C)cn1 | 9.399
CCN1CCN(CC(O)COc2ccccc2)CC1 (centres undefined) | -12.65
N#Cc1nc(NCCSCCCO)ccc1Cl | 9.175
CC(=O)NC(C)C(=O)NCc1ccc(C)c(F)c1 (centres undefined) | 1.309
CCc1nnsc1C(=O)NCc1cnn(C)c1 | -8.622
NC1CCCN(CCN2CCOCC2)C1 (centres undefined) | 14.92
NCCC1CN(Cc2cc3ccccc3s2)CCO1 (centres undefined) | 15.49
CN1CCC2(CC1)OCCN2C(=O)c1cccc(Cl)c1 | -5.544
O=C(NCc1cccc2c1OCO2)c1cccnc1O | 33.61
NS(=O)(=O)NCC1CCCN(CCC2CCCC2)C1 (centres undefined) | 5.66

The last 7 entries again:

| compound | Percent Effect |
|---|---|
| `CC(=O)NC(C)C(=O)NCc1ccc(C)c(F)c1` (centres undefined) | 1.309 |
| `CCc1nnsc1C(=O)NCc1cnn(C)c1` | -8.622 |
| `NC1CCCN(CCN2CCOCC2)C1` (centres undefined) | 14.92 |
| `NCCC1CN(Cc2cc3ccccc3s2)CCO1` (centres undefined) | 15.49 |
| `CN1CCC2(CC1)OCCN2C(=O)c1cccc(Cl)c1` | -5.544 |
| `O=C(NCc1cccc2c1OCO2)c1cccnc1O` | 33.61 |
| `NS(=O)(=O)NCC1CCCN(CCC2CCCC2)C1` (centres undefined) | 5.66 |